# Some of the results follow.
# Test system: T1, CTL2-GFP (C. trachomatis L2/434/Bu, GFP-expressing)
# T1 construct: L2/434/Bu, GFP-expressing
# Set-up: species or system HeLa; Intracellular C. trachomatis growth in HeLa cells, bulk GFP fluorescence relative to DMSO
# Conditions: bulk GFP, single well; 28.5 h, 10 µM; inhibitor
row,SMILES,% of control remaining [%]
1,CCN(CC)C(=O)C1CCCN(C(=O)NCCc2c[nH]cn2)C1 (centres unmarked) [CBK156124],106.941
2,O=C(NCc1ccc2c(c1)OCO2)c1cnc(-c2ccc(Cl)cc2)c(-c2ccco2)c1 [CBK037547],145.608
3,O=S(=O)(CCOc1ccccc1)N(CCOc1ccccc1)C1CCCCC1 [CBK022003],113.383
4,COc1ccc(-c2c(-c3ccc(F)cc3)[nH]c3[nH]c(=O)[nH]c(=O)c23)cc1 [CBK288232],97.6758
5,Cc1ccc(-c2nc3ncccc3o2)cc1NC(=S)NC(=O)c1ccc(-c2cccc([N+](=O)[O-])c2)o1 [CBK268294],103.033
6,COc1ccc(Oc2cncc(OC3CCN(CCCn4c(=O)[nH]c5ccccc54)C3)n2)cc1OC (centres unmarked) [CBK084406],121.73
7,COc1ccc(COC(=O)C2CC(=O)N(Cc3ccc(C)cc3)C2)cc1 (centres unmarked) [CBK296624],163.805
8,CC(C)c1cc(C(=O)N2CCNC(c3ccccc3)C2)nc2ncnn12 (centres unmarked) [CBK306533],96.9602
9,CC1CCN(S(=O)(=O)c2cc(S(=O)(=O)N3CCC(C)CC3)c3cccc4c3c2NC4=O)CC1 [CBK263716],102.514
10,COc1ccc(C(=O)Nc2c(Cl)ccc3nsnc23)cc1 [CBK270252],131.21
11,COc1ccccc1NC(=O)C(=O)NCc1cccnc1 [CBK287724],123.755
12,CC(=O)c1ccc(NC(=O)CSc2nnc(-c3ccncc3)s2)cc1 [CBK269183],134.704
13,COc1ccccc1CC(=O)NNC(=O)c1ccco1 [CBK262956],100
14,CN(Cc1cnn(C)c1)C(=O)COCc1nc2cc(F)ccc2[nH]1 [CBK306687],93.7067
15,Cn1cc(NC(=O)c2ccc(CN3CCCC3=O)cc2)cn1 [CBK306322],136.761
16,CC(C)(C)OC(=O)N1CCN(Cc2ccc(N)c3ccccc23)CC1 [CBK084530],105.399
17,Cc1ccc(CSc2cnc(C(C)(C)C)nc2)cc1 [CBK019832],103.702
18,O=C(NCCSCc1c(F)cccc1Cl)Nc1cccc(Cl)c1 [CBK268574],98.2275
19,O=C(Nc1cc(Cl)ccc1O)c1ccc(C(=O)Nc2cc(Cl)ccc2O)cc1 [CBK266784],109.78
20,COc1cnc(C(=O)NCCc2ccc(S(=O)(=O)NC(=O)NC3CCCCC3)cc2)cn1 [CBK011761],125.829
21,CC1(C)NC(=O)N(CC(O)CN(c2cc(Cl)ccc2Cl)S(=O)(=O)c2ccccc2)C1=O (centres unmarked) [CBK033672],130.051
22,Cn1cnc2cc(NC(=O)NCCN3CCCC(CO)C3)ccc21 (centres unmarked) [CBK307582],119.644
23,O=C(NCc1cccs1)C1(Cc2ccccc2-c2coc3ccccc23)CCOCC1 [CBK286310],107.549
24,CC(NC(=O)C1CCN(Cc2ccccn2)CC1)c1cccc2ccccc12 (centres unmarked) [CBK148662],77.4986
25,CN(Cc1ccc(F)cc1F)C(=O)Cn1nc2n(c1=O)CCCCC2 [CBK304598],95.4449
26,O=C(Nc1ccccc1N1CCNCC1)C1(c2ccccc2)CCCCC1 [CBK028281T],104.573

row,SMILES,% of control remaining [%]
1,CNc1nc2ccccc2n1CC(=O)c1ccccc1 [CBK262251B],95.498
2,Cc1nn2c(O)c(CCO)c(C(=O)O)nc2c1-c1ccc(Cl)cc1 [CBK286699],96.8649
3,Cc1ccc(C(=O)N2CCN(CC(=O)N3CCCC3)CC2)cc1 [CBK039096],111.175
4,Cc1nc2ccccc2c(O)c1CN1CCN(C)CC1 [CBK027922],112.025
5,c1cncc(-c2cncc(NCc3ccc4c(c3)OCO4)n2)c1 [CBK065313],179.466
6,O=C(COc1ccc(S(=O)(=O)N2CCCCC2)cc1)N1CCN(Cc2ccccc2)CC1 [CBK269144],131.696
7,N#Cc1c(Cl)cccc1Oc1ccc(S(=O)(=O)Nc2cccc(C(=O)O)c2)cc1 [CBK155718],105.985
8,O=C(Cn1ccc2ccnc(-c3cccs3)c21)NCc1ccccn1 [CBK284735],123.932
9,CN(Cc1ccccc1)C(=O)CCNS(=O)(=O)c1ccccc1 [CBK268585],110.048
10,O=C(Nc1cncc(N2CCNCC2)n1)c1coc2c1C(=O)CCC2 [CBK004229T],136.228
11,Cn1cnnc1Sc1cc(N2CCN(S(=O)(=O)c3ccc(Cl)c(Cl)c3)CC2)ccc1[N+](=O)[O-] [CBK266618],128.858
12,O=C(O)c1ccc(C2(c3ccc(C(=O)O)cc3)OC(=O)c3ccccc32)cc1 [CBK261150],107.31
13,O=C1N(Cc2ccc(Br)cc2)CCc2cncn21 [CBK021187],146.771
14,Cc1cn2cccc(C(=O)N3CCCCC3CCN3CCOCC3)c2n1 (centres unmarked) [CBK306518],158.149
15,CCc1ccc(OCC(=O)Nc2cccnc2)cc1 [CBK264658],123.561
16,O=C(CNC(=O)C1CCCCC1)NNC(=O)c1sc2ccccc2c1Cl [CBK267903],136.242
17,Cc1noc(C)c1C(=O)N1CC[C@H]2NC(=O)c3ccccc3OCC/C=C/C[C@H]2C1 [CBK291994],109.383
18,Cc1nc(CNC(=O)NC2CCCN(c3ccn(C)n3)C2=O)c(C)s1 (centres unmarked) [CBK305926],117.794
19,Cc1ccc2nc(Cl)c(/C=N/NC(=O)CN3CCOCC3)cc2c1 [CBK262731],76.2409
20,COc1cccc2c1OC(c1cccnc1)N1N=C(c3cccc(O)c3)CC21 (centres unmarked) [CBK287747],97.2222
21,Cn1c(=O)n(C)c2cc(S(=O)(=O)ON3C(=O)c4cccc5cc([N+](=O)[O-])cc(c45)C3=O)ccc21 [CBK267566],122.583
22,Cc1ccc(CNC(=O)Cn2nnc(-c3ccc(CN4CCC(S(C)(=O)=O)C4)cc3)n2)cc1 (centres unmarked) [CBK155407T],99.1001
23,CCOC(=O)c1c(NC(=O)c2nc3ncccn3n2)sc(C)c1C [CBK267630],118.121
24,CN(C)CCN(C)c1cccc(-c2cccc(OC(F)(F)F)c2)n1 [CBK037020],181.244
25,O=C(CN1CCN(c2ccc(C(F)(F)F)cn2)CC1)c1ccccc1 [CBK074699],63.2044
26,COc1ccc(CNC(=O)CSc2nnc(-c3ccncc3)n2C)cc1 [CBK266613],151.022

# A different layout for part of the listing above.
row | SMILES | % of control remaining [%]
23 | CCOC(=O)c1c(NC(=O)c2nc3ncccn3n2)sc(C)c1C [CBK267630] | 118.121
24 | CN(C)CCN(C)c1cccc(-c2cccc(OC(F)(F)F)c2)n1 [CBK037020] | 181.244
25 | O=C(CN1CCN(c2ccc(C(F)(F)F)cn2)CC1)c1ccccc1 [CBK074699] | 63.2044

# Following part:

row,SMILES,% of control remaining [%]
1,O=C(CC1CCCC1)N1CCC(c2cc(CCOc3cccc(C(F)(F)F)c3)[nH]n2)C1 (centres unmarked) [CBK286267],94.1855
2,O=C(Nc1ccc(Cl)c(S(=O)(=O)N2CCCC2)c1)c1cnccn1 [CBK295176],145.088
3,COCCn1c(SCc2cn3c(C)cccc3n2)nc(C)c1C [CBK304050],107.794
4,N=C(N/N=C\c1ccncc1)N/N=C\c1ccncc1 [CBK263278C],108.132
5,O=C(O)c1cc(NS(=O)(=O)c2ccc(N3CCCCC3)c([N+](=O)[O-])c2)cc(C(=O)O)c1 [CBK263876],77.2178
6,O=S(=O)(N1CCOCC1)N1CCN(CC(O)COc2ccc3cc(Br)ccc3c2)CC1 (centres unmarked) [CBK268840],88.0325
7,Nc1nonc1-n1nnc(C(=O)N/N=C/c2nc3ccccc3[nH]2)c1-c1ccccc1 [CBK262815],126.875
8,CC12CCCN1CCCN2C(=O)c1c[nH]c2ccccc12 (centres unmarked) [CBK169228],105.012
9,Cc1ccc(C(=O)NC2CCCCC2)c(N2CCOCC2)n1 [CBK076388],138.559
10,Cc1ccc(C2(O)CC3CCC(C2)N3C(=O)c2ccncc2)cc1 (centres unmarked) [CBK284609],137.711
11,O=C(Cc1coc2ccc3ccccc3c12)NNC(=O)c1ccccc1[N+](=O)[O-] [CBK268763],141.376
12,CSc1ncc(C(=O)N2CCC(N3CCCC(CO)C3)CC2)c(=O)[nH]1 (centres unmarked) [CBK307338],148.514
13,CC(=O)Nc1c(O)nc(SCC(=O)Nc2ccccc2C(N)=O)[nH]c1=O [CBK268031],104.17
14,OC(c1ccc2c(c1)OCO2)C1CCCCC1N1CCCCCC1 (centres unmarked) [CBK022779C],183.173
15,CCCc1cc(C(=O)N2CCc3sccc3C2C)[nH]n1 (centres unmarked) [CBK283072],109.17
16,OC(CNCc1ccc2c(c1)OCO2)COc1ccc(Cl)c(Cl)c1 (centres unmarked) [CBK074649],121.022
17,Cc1nn(C)cc1CN(C)CC(=O)Nc1nc2c(s1)CC(C)CC2 (centres unmarked) [CBK306669],129.092
18,NC(=O)C1CCN(C(=O)CSc2nc3ccccc3s2)CC1 [CBK293953],133.008
19,O=C(Cn1cc(C(=O)Nc2ccc(F)cc2)ccc1=O)Nc1nc2c(s1)CCCCC2 [CBK286080],102.541
20,COc1cccc(C(=O)c2snc(Nc3ccc(F)cc3)c2N)c1 [CBK269173],126.091
21,Cc1noc(C)c1CC(=O)NCc1cccc(C#N)c1 [CBK305822],97.8949
22,Cn1nc(C2CCN(C(=O)c3cccs3)CC2)c2cccnc21 [CBK284925],102.99
23,O=C(CN1CCOCC1)N1CCC(F)CC1 [CBK200383],113.831
24,Cc1cc(C)c(NC(=O)CSc2nc(C)c(Cc3ccccc3Cl)c(O)n2)c([N+](=O)[O-])c1 [CBK268693],148.02
25,O=C(c1c[nH]c2ccccc12)C(F)(F)C(F)(F)F [CBK007222],126.783
